# Literature values as cited in US20230173296A1, “INTRACAVITARY PHOTODYNAMIC THERAPY” (Simphotek, Inc., priority 2020, published 2023).
# At least one structure is not confirmed: it was looked up by name or label, or the drawing left a doubt.
structure (smiles),measurement,value
Oc1cccc(-c2c3nc(c(-c4cccc(O)c4)c4ccc([nH]4)c(-c4cccc(O)c4)c4nc(c(-c5cccc(O)c5)c5ccc2[nH]5)CC4)C=C3)c1 [mTHPC],"β, k4 + k2",mTHPC: 8.7 μM
